The record followed here is patent US20230126199A1.

Sequences of proteins named here, by UniProt entry; tags and fusion partners are left off. A change or cut given only in a name is not applied to a line headed by its entry.
UniProt P14434: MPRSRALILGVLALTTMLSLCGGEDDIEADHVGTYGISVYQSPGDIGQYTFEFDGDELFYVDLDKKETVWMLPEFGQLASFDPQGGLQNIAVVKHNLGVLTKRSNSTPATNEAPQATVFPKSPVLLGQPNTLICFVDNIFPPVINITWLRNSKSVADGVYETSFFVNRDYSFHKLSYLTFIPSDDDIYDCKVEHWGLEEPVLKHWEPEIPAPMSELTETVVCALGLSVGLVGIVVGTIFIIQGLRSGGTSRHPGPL

The target of the assay is sc-Dimer-CD81-IL-12p40 with MHC class IIα chain (Mus musculus (Mouse)) (UniProt P14434). The assay is described as follows: co-expression of the free IL-12 subunit with the CD81-anchored subunit; IL-12 found on vesicles by flow cytometry. (Flow cytometry measures light scatter and fluorescence of single cells or particles in a stream.)

These are yes or no findings as the source states them, for the method shown. Some results given as binding are weak or reduced against the parent protein; the word gives no strength.

B1: IL-12p35 (SEQ ID NO: 97) (ligand)
chain: MWELEKDVYVVEVDWTPDAPGETVNLTCDTPEEDDITWTSDQRHGVIGSGKTLTITVKEFLDAGQYTCHKGGETLSHSHLLLHKKENGIWSTEILKNFKNKTFLKCEAPNYSGRFTCSWLVQRNMDLKFNIKSSSSSPDSRAVTCGMASLSAEKVTLDQRDYEKYSVSCQEDVTCPTAEETLPIELALEARQQNKYENYSTSFFIRDIIKPDPPKNLQMKPLKNSQVEVSWEYPDSWSTPHSYFSLKFFVRIQRKKEKMKETEEGCNQKGAFLVEKTSTEVQCKGGNVCVQAQDRYYNSSCSKWACVPCRVRS
B1: the binding result is “binds”.
